Source: paper PMC12145851
No constants are given. Whether binding was seen depends on the method and setting. Binding seen in cells or lysates may run through a third protein. These calls come from enrichment with a bait or labelling near it, and not all partners need be listed. A no says only that the protein was not detected with the bait.

T1: phospholamban (PLN) (mouse (endogenous in mouse heart)), P61014
T1 chain: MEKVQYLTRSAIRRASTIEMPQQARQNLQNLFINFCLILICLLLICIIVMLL


Experiments:
[1] = target: T1, phospholamban (PLN) (mouse (endogenous …)); assay: affinity purification with mass spectrometry; xIP-MS: mouse hearts fixed (cross-linked) overnight in 3 % glyoxal, RIPA lysate; 1 mg soluble protein with 2 μg PLN antibody overnight at 4 °C, protein A/G beads, on-bead trypsin digestion, DIA MS; mock IP without primary antibody as control; conditions: remark: other sources report otherwise
[2] = target: T1, phospholamban (PLN) (mouse (endogenous …)); assay: affinity purification with mass spectrometry; IP-MS: unfixed, snap-frozen mouse hearts, RIPA lysate; 1 mg soluble protein with 2 μg PLN antibody overnight at 4 °C, protein A/G beads, on-bead trypsin digestion, DIA MS; mock IP without primary antibody as control; conditions: remark: other sources report otherwise

| binding [1] | binding [2] | Binder |
| --- | --- | --- |
| no binding | no binding | von Hippel-Lindau, P40338 1-181 (protein) MPRKAASPEEAAGEPGPEEMEAGRPRPVLRSVNSREPSQVIFCNRSPRVVLPLWLNFDGEPQPYPILPPGTGRRIHSYRGHLWLFRDAGTHDGLLVNQTELFVPSLNVDGQPIFANITLPVYTLKERCLQVVRSLVKPENYRRLDIVRSLYEDLEDYPSVRKDIQRLSQEHLESQHLEEEP |
| no binding | no binding | HS-associated protein X-1 (HAX-1), O35387 1-280 (protein) MSVFDLFRGFFGFPGPRSHRDPFFGGMTRDDDDDDDDDDEAEEDRGAWGRESYAFDGSQPPEEFGFSFSPRGGMRFHGNFGFDDLVRDFNSIFSEMGAWTLPSHSPELPGPESETPGERLREGQTLRDSMLKYPDSHQPRIFEGVLESHAKPESPKPAPDWGSQGPFHRLDDTWPVSPHSRAKEDKDLDSQVSQEGLGPLLQPQPKSYFKSISVTKITKPDGTVEERRTVVDSEGRRETTVTHQEAHDSSRSDPDSQRSSALDDPFSILDLLLGRWFRSR |
